At least one structure is not confirmed: it was looked up by name or label, or the drawing left a doubt.
Molecular target: T1, TRPM5 (Homo sapiens, UniProt Q9NZQ8)
T1 construct: Human TRPM5 cDNA containing the complete ORF of the long splice version; expressed in transfected cells
T1 sequence (Q9NZQ8 1-1165): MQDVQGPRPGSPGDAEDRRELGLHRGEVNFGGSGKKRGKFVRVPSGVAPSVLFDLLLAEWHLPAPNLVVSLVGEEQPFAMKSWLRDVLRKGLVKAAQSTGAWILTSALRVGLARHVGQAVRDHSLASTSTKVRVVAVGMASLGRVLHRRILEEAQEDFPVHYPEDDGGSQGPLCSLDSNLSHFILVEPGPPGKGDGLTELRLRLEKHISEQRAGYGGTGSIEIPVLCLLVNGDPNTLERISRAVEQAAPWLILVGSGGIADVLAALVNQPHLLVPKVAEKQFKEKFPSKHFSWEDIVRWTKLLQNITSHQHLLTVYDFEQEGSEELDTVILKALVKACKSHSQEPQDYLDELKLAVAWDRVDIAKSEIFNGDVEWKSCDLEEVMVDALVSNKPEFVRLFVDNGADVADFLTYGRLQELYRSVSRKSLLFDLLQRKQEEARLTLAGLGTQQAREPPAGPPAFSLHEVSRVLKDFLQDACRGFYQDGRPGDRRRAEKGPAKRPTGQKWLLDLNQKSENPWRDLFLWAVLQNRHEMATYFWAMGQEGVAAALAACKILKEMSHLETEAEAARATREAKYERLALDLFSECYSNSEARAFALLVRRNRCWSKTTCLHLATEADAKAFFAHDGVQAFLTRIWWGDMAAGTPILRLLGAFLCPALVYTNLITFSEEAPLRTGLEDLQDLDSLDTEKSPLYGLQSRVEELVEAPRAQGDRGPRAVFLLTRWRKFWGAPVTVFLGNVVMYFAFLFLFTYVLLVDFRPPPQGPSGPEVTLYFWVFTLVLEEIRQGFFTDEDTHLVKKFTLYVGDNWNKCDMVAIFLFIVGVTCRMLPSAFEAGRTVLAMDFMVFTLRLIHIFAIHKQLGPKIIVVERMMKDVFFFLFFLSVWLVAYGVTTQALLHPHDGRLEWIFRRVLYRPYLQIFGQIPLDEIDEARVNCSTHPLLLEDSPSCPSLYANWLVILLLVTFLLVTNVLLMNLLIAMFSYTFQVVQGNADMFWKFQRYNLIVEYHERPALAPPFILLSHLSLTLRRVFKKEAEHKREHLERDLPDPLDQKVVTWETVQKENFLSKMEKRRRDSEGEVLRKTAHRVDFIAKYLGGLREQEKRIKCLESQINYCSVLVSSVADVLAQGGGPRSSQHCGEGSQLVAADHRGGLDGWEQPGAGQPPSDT
Experiment: Combined patch-clamp and fura-2 recordings of TRPM5 currents after Ca2+ release, [Ca2+]i not buffered
Type: cell-based
Settings: 50 μM cyclopiazonic acid, currents at +80 and −80 mV, n=9 cells
Description: Cells grown on glass coverslips were transferred to the recording chamber and kept in a standard modified Ringer's solution of the following composition (in mM): NaCl 140, KCl 2.8, CaC12 1, MgC12 2, glucose 10, Hepes.NaOH 10, pH 7.2, with osmolarity typically ranging from 298-308 mOsm. Intracellular pipette-filling solutions contained (in MM): K-glutamate 120, NaCl 8, MgC12 1, K-BAPTA 10, HEPES.CsOH, pH 7.2 adjusted with KOH. In order to adjust free [Ca^2+]i, to the desired concentration appropriate amounts of CaC12 were added as calculated with WebMaxC v2.1 (available through Stanford University). In the case of fura-2 measurements intracellular K-BAPTA was replaced by 200 μM fura-2. Fura-2 is a calcium indicator (Handbook of Fluorescent Probes and Research Chemicals, 9th ed. Molecular Probes). […]
The cytosolic calcium concentration was monitored at a rate of 5 Hz with a photomultiplier-based system using a monochromatic light source tuned to excite fura-2 fluorescence at 360 and 390 nm for 20 ms each (TILL Photonics, Munich, Germany). Emission was detected at 450-550 run with a photomultiplier, whose analog signals were sampled and processed by X-Chart software (HEKA, Lambrecht, Germany). Fluorescence ratios were translated into free intracellular calcium concentration based on calibration parameters derived from patch-clamp experiments with calibrated calcium concentrations. […]

SMILES: CC(=O)C1=C(O)[C@@H]2[C@H]3c4c[nH]c5cccc(c45)C[C@H]3C(C)(C)N2C1=O [CPA, Cyclopiazonic acid]
- induction of TRPM5 currents: fails to induce significant TRPM5 currents
